Measured values as given in publication doi:10.1101/2021.07.01.450807.
No constants are given. Whether binding was seen depends on the method and setting.

Chains of the proteins cited; added tags and fusions are not shown. Residues count along the entry.
UniProt P02545, residues 66-230: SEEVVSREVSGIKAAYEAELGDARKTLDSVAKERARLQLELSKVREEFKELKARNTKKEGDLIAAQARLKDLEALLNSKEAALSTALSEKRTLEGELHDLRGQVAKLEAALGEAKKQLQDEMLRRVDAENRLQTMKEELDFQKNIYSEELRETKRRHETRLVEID
UniProt P03070, residues 84-708: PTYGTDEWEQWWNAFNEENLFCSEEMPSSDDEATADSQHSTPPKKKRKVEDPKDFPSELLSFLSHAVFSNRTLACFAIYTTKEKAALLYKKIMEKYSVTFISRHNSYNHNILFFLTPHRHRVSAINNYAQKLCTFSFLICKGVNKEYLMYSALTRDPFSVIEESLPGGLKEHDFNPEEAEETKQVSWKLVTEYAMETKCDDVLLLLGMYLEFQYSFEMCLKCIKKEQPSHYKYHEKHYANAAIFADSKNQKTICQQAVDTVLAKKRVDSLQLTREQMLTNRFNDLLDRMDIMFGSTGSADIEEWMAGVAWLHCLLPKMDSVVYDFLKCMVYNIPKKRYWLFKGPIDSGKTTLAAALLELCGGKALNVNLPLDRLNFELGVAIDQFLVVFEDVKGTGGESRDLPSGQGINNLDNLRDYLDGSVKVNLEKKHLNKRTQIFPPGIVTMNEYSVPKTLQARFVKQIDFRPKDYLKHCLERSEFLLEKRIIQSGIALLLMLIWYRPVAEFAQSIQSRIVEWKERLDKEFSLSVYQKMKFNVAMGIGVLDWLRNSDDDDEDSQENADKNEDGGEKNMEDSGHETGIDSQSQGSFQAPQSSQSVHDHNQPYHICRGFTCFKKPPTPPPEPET

Target: pGBKT7-Lamin (human lamin C amino acids 66-230) bait fusion (human) (UniProt P02545)
Assay: two-hybrid

## pGADT7-Large-T (SV40 large-T antigen amino acids 84-708) prey fusion (from UniProt P03070 84-708) (domain or fragment)
  binding: no binding
